Experimental data: paper PMC12040169 (PLOS Biology, 2025)
Some of the results follow.

system: T1, CTL2-GFP (C. trachomatis L2/434/Bu, GFP-expressing); design: species or system HeLa; Intracellular C. trachomatis growth in HeLa cells, bulk GFP fluorescence relative to DMSO; conditions: bulk GFP, single well; 28.5 h, 10 µM; inhibitor
T1 construct: L2/434/Bu, GFP-expressing

Compound | % of control remaining
CCNC(=O)N1C[C@@H]2OCC(=O)N(Cc3cccnc3)[C@@H]2C1 [CBK289682] | 109.468%
O=C(Nc1ccncc1)c1ccc(CNS(=O)(=O)c2cccc(C(F)(F)F)c2)cc1 [CBK267181] | 175.36%
Cc1ccc2nc(-c3ccncc3)cc(C(=O)N3CCN(C4CCCCC4)CC3)c2c1 [CBK267736] | 139.478%
CC(C)(C)OC(=O)NCc1ccc2cccc(OCCO)c2n1 [CBK000585] | 100%
Cc1c(C(C)NCC(O)c2ccco2)cnn1-c1ccc(C#N)cc1 (stereo not shown) [CBK306462] | 116.252%
COc1ccc(CNc2nc(-c3cccnc3)nn2C(=O)c2ccc([N+](=O)[O-])cc2)cc1 [CBK268966] | 131.646%
O=C(NCc1cccc(C(F)(F)F)c1)N1CCN(CCc2ccccc2)CC1 [CBK158902] | 110.744%
OCC1CCCN1c1nccnc1-c1cccnc1 (stereo not shown) [CBK089049] | 142.075%
Cc1ccc(Nc2nc(N)nc(CSc3nnc(-c4ccncc4)o3)n2)cc1 [CBK266464] | 163.218%
O=C(O)COCC(=O)N1CCN(CCc2ccccc2)CC1 [CBK270298] | 76.046%
Cc1ccccc1OCc1nnc(SCc2nnc(-c3ccccc3)o2)n1C [CBK267406] | 148.374%
Clc1ccc(CN2CCN(c3nccnc3OCCN3CCOCC3)CC2)cc1 [CBK082887T] | 104.942%
O=C(Nc1ccc2c(c1)CCO2)N1CCCC1c1nc(-c2ccccc2)c2ccccn12 (stereo not shown) [CBK046733] | 108.336%
COc1ccc(-c2cc(NC(=S)NC(=O)/C=C/c3ccccc3)[nH]n2)cc1 [CBK007190] | 84.7521%
CC(C)(N)CNC(=O)c1cc(-c2ccc(Cl)cc2)[nH]n1 [CBK116554] | 100%
O=c1c2c(-c3ccc(F)cc3)csc2ncn1CC1(CO)CCOCC1 [CBK306822] | 129.64%
CCCc1ccc(N(C)C(=O)c2ccc(OCC)cc2)cc1 [CBK161615] | 66.5127%
O=C(NCc1ccncc1)c1ccc(-n2ccnc2)c(-n2cccc2)c1 [CBK285367] | 124.551%
Cc1cc(C)c2c(CC(=O)N(C)CCN(C)C)coc2c1 [CBK282174] | 128.105%
Cc1cc(-c2cnc(N)nc2)cc(C2CCCN(C(=O)COc3c(C)cccc3C)C2)n1 (stereo not shown) [CBK285933] | 89.1971%
CC1=NN(C(=O)c2c(Cl)c(C)nn2C)C(O)(C(F)(F)F)C1 (stereo not shown) [CBK058892] | 102.626%
c1cncc(OCCN2CCN(c3nccnc3OCCN3CCOCC3)CC2)c1 [CBK082914] | 123.525%
CC(=O)Nc1nc(OCC(F)(F)F)cnc1-c1cccc(C(=O)N(C)C)c1 [CBK145401] | 114.453%
CN(C)c1ncc(-c2ccccc2)c(C2CCCN2Cc2ccc3ncccc3c2)n1 (stereo not shown) [CBK286256] | 109.886%
c1coc(CNc2ncc(-c3ccc4c(c3)OCO4)c(-c3cccs3)n2)c1 [CBK286414] | 144.506%
CCC(c1ccc(F)cc1)n1cncc1-c1cnn(C)c1 (stereo not shown) [CBK281883] | 120.691%
COc1ccc(Cn2c(=O)n(S(=O)(=O)c3cccc(-c4nnc(C)o4)c3)c3ccccc32)cc1 [CBK106558] | 120.114%

Shown as a markdown table: part of the list above

| Compound | % of control remaining |
| --- | --- |
| O=C(NCc1cccc(C(F)(F)F)c1)N1CCN(CCc2ccccc2)CC1 [CBK158902] | 110.744% |
| OCC1CCCN1c1nccnc1-c1cccnc1 (stereo not shown) [CBK089049] | 142.075% |
| Cc1ccc(Nc2nc(N)nc(CSc3nnc(-c4ccncc4)o3)n2)cc1 [CBK266464] | 163.218% |
| O=C(O)COCC(=O)N1CCN(CCc2ccccc2)CC1 [CBK270298] | 76.046% |

(more compounds)

Compound | % of control remaining
O=C1NC(=O)C(CCCCN2CCCC3(CCN(C(=O)c4cc(F)c(F)cc4F)C3)C2)N1 (stereo not shown) [CBK132020] | 127.955%
Cc1cc(NC(=O)C(C)OC(=O)C(NC(=O)OC(C)(C)C)c2ccccc2)no1 (stereo not shown) [CBK170398] | 125.505%
Cc1cc(C)cc(CC(C)Cc2nc3ccccc3[nH]2)c1 (stereo not shown) [CBK262432] | 119.629%
COc1ccc(C(NC(=O)N2CCN(C(=O)NCc3ccccc3Cl)CC2)c2ccccc2C)cn1 (stereo not shown) [CBK081471] | 118.592%
CC(=O)Nc1cccc(NC(=O)N2CCNC(=O)C2)c1 [CBK155863] | 109.228%
Cc1cc(N2CCOC(c3nc(C)n[nH]3)C2)c2ccc(F)c(F)c2n1 (stereo not shown) [CBK306018] | 115.201%
CCOC(=O)c1cnc2ccc(F)cc2c1NCc1ccco1 [CBK265834] | 132.306%
O=C1CCCN1CC#CCN1CCN(Cc2ccccc2)CC1 [CBK023770C] | 100.077%
CN1CCN(c2nc(-c3ccc(-c4ccccc4)cc3)cnc2N)CC1 [CBK063421] | 84.4548%
CC1(C)C(=O)NCCN1C(=O)Cn1cnc2ccccc21 [CBK281856] | 166.164%
NC(=O)c1c(NC(=O)CSc2nnc(-c3ccccc3)n2CC2CCCO2)sc2c1CCC2 (stereo not shown) [CBK084789] | 99.8598%
O=C(c1ccc2[nH]nnc2c1)N1CCc2ccccc21 [CBK200365] | 133.406%
C=CCN(C(=S)NCc1ccc2c(c1)OCO2)C1CCCCC1 [CBK200037] | 133.425%
CN1CCC(O)(Cn2cnc3cc(-c4ccc(F)cc4)sc3c2=O)CC1 [CBK307434] | 121.801%
c1ccc(CSc2nnc3[nH]c4ccccc4n23)cc1 [CBK267841] | 109.688%
Cc1nc(CCNCc2c(C)nn(C)c2N(C)C)cs1 [CBK304828] | 105.764%
CC(=O)c1ccc(-c2nc(-c3ccoc3)cnc2N)cc1 [CBK064058] | 150.099%
O=S(=O)(Nc1ccc(C(O)(C(F)(F)F)C(F)(F)F)cc1)c1ccccc1Br [CBK062101] | 109.402%
Cc1nc2cc(C(=O)NC(C)c3ccccn3)ccc2n1C (stereo not shown) [CBK281822] | 180.337%
Cc1nc[nH]c1CN1CCCN(S(=O)(=O)c2ccc(-n3cnc(Cl)c3Cl)cc2)CC1 [CBK063087] | 118.476%
COc1cnc(-c2cnn(C)c2)c(NC(=O)c2ccco2)n1 [CBK145329] | 174.64%
CC(=O)N(C)Cc1cccc(Nc2ncnc3c2cnn3CCC#N)c1 [CBK306232] | 132.703%
O=[N+]([O-])c1ccc(N2CCN(C/C=C/c3ccccc3[N+](=O)[O-])CC2)cc1 [CBK261895] | 115.318%
O=C(O)CC(CC(=O)N1CCN(Cc2ccc3c(c2)OCO3)CC1)c1ccccc1 (stereo not shown) [CBK074769] | 105.131%
N#Cc1cc(CN2CCCN(S(=O)(=O)c3ccc(C(F)(F)F)cc3Cl)CC2)ccc1F [CBK063100] | 69.3247%
Cc1ccc(-c2n[nH]c(=S)n2CC(=O)N2CCC(C(=O)Nc3ccc4c(c3)OCO4)CC2)cc1 [CBK297887] | 126.015%
CCOc1c(CNCc2ccccn2)cccc1OC [CBK268104C] | 147.218%

Compound | % of control remaining
CC(C)(C)OC(=O)N1CCC(C(Cc2ccc(-c3ccc(S(C)(=O)=O)cc3)cc2)C(=O)NCCOCCO)CC1 (stereo not shown) [CBK173128] | 100.09%
Cc1ccc(C(=O)NCCc2nnc3ccc(Cl)nn23)cc1 [CBK287636] | 108.218%
COc1nc2ccn(CCNC(=O)C(C)C)c(=O)c2cc1C#N [CBK307015] | 142.724%
CC(=O)NCc1ccc(C)n1C [CBK046356] | 142.462%
CN(Cc1cnn(C)c1)C(=O)c1ccc(Br)cc1O [CBK305742] | 138.474%
CNC(=O)CCc1ccccc1NC(=O)NCCSc1ncn[nH]1 [CBK307253] | 131.889%
CCOC(=O)N1CCC(NC(=O)CCC(=O)O)CC1 [CBK286569] | 124.482%
Cc1nnnn1-c1cc(NC(=O)NCCCc2nc[nH]n2)ccc1F [CBK304102] | 131.27%
CN(Cc1ccccc1)c1nccnc1-c1ccsc1 [CBK037394] | 173.978%
CCCCCn1c(=O)c(C(=O)NCc2ccc(Cl)cc2)c(O)c2ccccc21 [CBK291131] | 122.134%
CN(C)C(=O)c1ccc(-c2ncc(OCc3cccs3)nc2N)cc1 [CBK145187] | 100.149%
Cc1cc(Cl)ccc1CNC(=O)C1(c2ccccc2)CCCC1 [CBK149519] | 116.807%
CSCCN1CCC2(CC1)CN(CC(N)=O)c1ccccc12 [CBK126801] | 125.935%
Cn1c2ccccc2c2nnc(SCCc3ccccc3)nc21 [CBK267986] | 72.109%
O=C(O)CN1C(=O)C(=O)/C(=C(O)\C=C\c2ccccc2)C1c1ccccc1 (stereo not shown) [CBK286551] | 101.214%
O=C(Cn1cnnn1)N1CCc2ccccc21 [CBK200367] | 111.288%
O=C(CCn1c(=O)oc2cc(Cl)ccc21)NCc1ccco1 [CBK269857] | 142.365%
O=C(Nc1cccnc1)c1cc(S(=O)(=O)N2CCOCC2)ccc1Br [CBK270101] | 112.103%
Cc1cccc(N2CCN(C(=O)C3CCN(Cc4cccc(OCc5ccccc5)c4)CC3)CC2)c1C [CBK264328G] | 94.4558%
Cc1ccc(N2C(=O)c3ccccc3C2=O)cc1 [CBK113243] | 119.18%
Cc1ccc(C)c(C(=O)C2=C(O)C(=O)N(CCN(C)C)C2c2cccc(Cl)c2)c1 (stereo not shown) [CBK265495] | 132.487%
Cc1ccccc1C1(O)CCN(CC(O)c2ccc(F)cc2)CC1 (stereo not shown) [CBK282471] | 139.193%
CCOC(=O)NC(=S)NC(=O)C(C)(C)C [CBK020037] | 124.873%
CCN1C(=O)COC[C@@H]1[C@H](O)c1ccc(NC(=O)c2ccco2)cc1 [CBK289695] | 117.854%
COc1cccc(C(=O)N2CCC(NC(=O)c3ccc(C(F)(F)F)cc3)CC2)c1 [CBK155022] | 89.6924%
